Experimental data from PubChem BioAssay AID504467 (National Center for Advancing Translational Sciences (NCATS), 2011).
In all, about 330,000 compounds went through this assay and about 7,700 (2.3%) were called active. The inconclusive results got no clear call from the source; some entries with a clear call stand among them for comparison. The call rests on the fitted dose curve; in most records, active means well fitted inhibition curve with a large enough effect; inconclusive means small, poorly fitted or top-dose-only effect, or effect the other way; inactive means flat fitted curve, though single readings scatter. Potencies of inconclusive entries are doubtful fits and often do not repeat.

Experiment: qHTS screen for small molecules that inhibit ELG1-dependent DNA repair in human embryonic kidney (HEK293T) cells expressing luciferase-tagged ELG1; further: nearly all actives have a fitted effect of over 55% in size
Conditions: HEK293T ELG1-luciferase reporter, luminescence, 16 h, DNA damage induced by 5-fluorouridine; activity change, negative = inhibition: at 46.1 µM (top of the series)
Method in brief: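 Quantitative HTS, concentration-response format. 2,000 cells/well co-treated with 5-fluorouridine and compound, 16 hr in 5% CO2 at 37 °C; ONE-Glo luminescence read after 30 min.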
On the % scale 0 is the no-effect control and ±100 the full control effect; potency means the concentration at half of the fitted maximal effect.

SMILES	activity change, negative = inhibition	Potency
Cc1cccc(NC(=O)c2oc(=O)c3ccccc3c2-c2ccccc2)c1C	inactive: -3.87%	–
Cc1ccc(-c2nc3ccccc3c(=O)o2)cc1	–	inconclusive: 14.6 µM [activator, partial curve]
O=[N+]([O-])c1cc(CN2CCCC2)c2cccnc2c1O	inactive: -0.729%	–
O=C(N/N=C/c1ccc(O)cc1)c1cncc(Br)c1	inactive: 12.9%	–
CCCCCCCCCCCCC(NC(C)=O)(C(=O)OCC)C(=O)OCC	–	inconclusive: 23.1 µM [inhibitor, single point]
CCOc1ccc2[nH]c(=O)c(CN(Cc3ccco3)C(CC)c3nnnn3Cc3ccccc3)cc2c1 (stereo not drawn)	–	inconclusive: 20 µM [inhibitor, single point]
Cc1nc2ccccc2n1S(=O)(=O)c1cc(C(=O)O)ccc1Cl	inactive: -0.167%	–
Cc1nc(NC(=O)CSc2nc3cccnc3n2Cc2ccccc2)sc1C	–	inconclusive: 23.1 µM [inhibitor, single point]
CCN(CC)S(=O)(=O)c1ccc(C)c(NC(=S)N2CCN(c3ccccn3)CC2)c1	–	active: 16.4 µM
Cc1cc(-c2nc3ncccc3o2)ccc1NC(=O)CC(C)C	–	inconclusive: 13 µM [activator, partial curve]
Cc1ccc(SCCNC(=O)c2ccc(CN3CCOCC3)cc2)cc1	–	inconclusive: 23.1 µM [inhibitor, single point]
CN(C(=O)CSc1nc2scc(-c3ccccc3)c2c(=O)[nH]1)c1ccccc1	–	inconclusive: 18.3 µM [inhibitor, single point]
COc1ccc2nc(NC(=O)c3ccc(-c4cccc([N+](=O)[O-])c4)o3)sc2c1	inactive: 7.84%	–
COc1ccc(Cl)cc1N(CC(=O)N/N=C/c1ccc(OC(C)C)cc1)S(=O)(=O)c1ccc(C)c([N+](=O)[O-])c1	inactive: -0.704%	–
CCC(=O)c1ccc(OCC(O)CN(C)C2CCCCC2)cc1 (stereo not drawn)	–	inconclusive: 29.1 µM [activator, partial curve, poor fit]
COC(CC(=O)NNC(=S)Nc1ccccc1)OC	inactive: -9.11%	–
O=C(Nc1ccccc1C(=O)O)c1cccc(NC(=O)c2ccc(Br)o2)c1	inactive: 2.43%	–
O=C1C(c2ccccc2)C(c2ccccc2)NC(c2ccccc2)C1c1ccccc1 (stereo not drawn)	inactive: 8.26%	–
COc1ccccc1N1CCN(CC(=O)Nc2nccs2)CC1	inactive: -24.4%	–
COc1ccc(S(=O)(=O)N2CCCCC2)cc1	inactive: 4.27%	–
CCN(CCn1cccn1)C(=O)C1CCC(=O)N(CCc2cccc(F)c2)C1 (stereo not drawn)	inactive: 15.3%	–
Cc1cc(N/N=C/c2ccccc2)nc(NCc2ccccc2)n1	–	inconclusive: 20.6 µM [activator, single point]
CCn1c(=O)n(CC)c2cc(N3CCCC3)c(NC(=O)c3ccccc3C)cc21	–	inconclusive: 29.1 µM [inhibitor, single point]
[O-][n+]1onc2c1CCc1c-2nn(-c2ccccc2Cl)[n+]1[O-]	–	inconclusive: 16.4 µM [inhibitor, single point]
COc1ccccc1-n1cnc(N)c1C(=O)c1ccccc1	–	inconclusive: 4.11 µM [inhibitor, single point]

Looked up by compound from above:
SMILES	activity change, negative = inhibition	Potency
Cc1cccc(NC(=O)c2oc(=O)c3ccccc3c2-c2ccccc2)c1C	inactive: -3.87%	–
COc1ccc2nc(NC(=O)c3ccc(-c4cccc([N+](=O)[O-])c4)o3)sc2c1	inactive: 7.84%	–
O=C(Nc1ccccc1C(=O)O)c1cccc(NC(=O)c2ccc(Br)o2)c1	inactive: 2.43%	–

The results go on.

SMILES	activity change, negative = inhibition	Potency
CCOc1ccc2nc(NC(=O)C3CCN(c4cnccn4)CC3)sc2c1	–	inconclusive: 20.6 µM [inhibitor, partial curve, poor fit]
O=C(Nc1cccc([N+](=O)[O-])c1)c1ccccc1	inactive: -14.3%	–
CCOc1ccc(N2C(=O)c3ccccc3C2O)cc1 (stereo not drawn)	–	inconclusive: 9.2 µM [activator, partial curve]
Cc1cc(Br)ccc1OCc1nc(-c2cccnc2)no1	–	inconclusive: 11.6 µM [activator, partial curve]
CCC(Sc1nc2ccsc2c(=O)n1Cc1ccc(C(=O)O)cc1)C(=O)Nc1ccc(C)c(Cl)c1 (stereo not drawn)	–	inconclusive: 8.2 µM [activator, partial curve]
Cc1cccc(C(=O)Nc2ccc3c(c2)C(=O)NC3=O)c1	–	inconclusive: 29.1 µM [activator, partial curve, poor fit]
CC(C)CN1C(=O)c2ccc(C(=O)NCc3ccccn3)cc2C1=O	inactive: -0.698%	–
CCOC(=O)c1c(C)c(C(=O)NCc2cccnc2)c(C)n1CC	inactive: -11.2%	–
O=C(c1ccccc1)N(Cc1cccc(Br)c1)C1CCS(=O)(=O)C1 (stereo not drawn)	inactive: 12.6%	–
CCc1ccc(CN(C)C(=O)c2cc(S(=O)(=O)N3CCOCC3)ccc2N2CCCC2)cc1	–	inconclusive: 5.17 µM [inhibitor, single point]
Cc1ccc(CNC(=O)c2cc3cc(Br)ccc3oc2=N)cc1	inactive: -2.13%	–
CCOc1ccc(-c2nnc(-c3cccs3)o2)cc1OCC	–	inconclusive: 29.1 µM [activator, single point]
O=C(c1ccccc1)N1N=C(c2ccco2)CC1c1cccs1 (stereo not drawn)	inactive: -0.407%	–
Cc1cc(C)c(C#N)c(SCCS(=O)(=O)Cc2ccccc2)n1	–	inconclusive: 29.1 µM [inhibitor, single point]
c1ccc(CSc2ncnc3c2cnn3-c2ccccc2)cc1	–	inconclusive: 14.6 µM [activator, partial curve]
S=C(N/N=C/c1ccc(Cl)c(Cl)c1)Nc1ccccc1Cl	–	inconclusive: 29.1 µM [activator, single point]
COc1ccc(C(=O)N/N=C/c2sc3ccccc3c2O)cc1	–	inconclusive: 29.1 µM [activator, single point]
N#CCC(=O)Nc1nc(-c2ccc3c(c2)OCCO3)cs1	–	inconclusive: 20.6 µM [activator, partial curve]
NC(=O)c1c(NC(=O)c2ccc(S(=O)(=O)N3CCOCC3)cc2)sc2c1CCCCC2	–	inconclusive: 18.4 µM [inhibitor, partial curve, poor fit]
Cc1ccc2[nH]c3c(=S)nc[nH]c3c2c1	–	inconclusive: 7.31 µM [activator, partial curve]
Cc1cccc(/C=C(\c2nc3ccccc3[nH]2)S(=O)(=O)c2ccccc2)c1	–	active: 11.6 µM
O=C1CC(c2ccccc2)CC(O)=C1C=Nc1ccc(O)cc1 (stereo not drawn)	–	inconclusive: 18.3 µM [inhibitor, partial curve]
C[C@@H]1C[C@H]2[C@@H]3C[C@H](F)C4=CC(=O)C=C[C@]4(C)[C@@]3(F)[C@@H](O)C[C@]2(C)[C@@]1(O)C(=O)CO	inactive: 23.1%	–
COc1ccc(C(C)NC(=S)NCc2ccc(F)cc2)cc1OC (stereo not drawn)	inactive: -4.25%	–
CNC(=O)C12CC3CC(CC(Cl)(C3)C1)C2	inactive: 29.7%	–

SMILES	activity change, negative = inhibition	Potency
COc1ccc(NC(=O)C(=O)NCCC2=CCCCC2)c(OC)c1	–	inconclusive: 29.1 µM [activator, partial curve, poor fit]
CCCCN(CC)C(=S)Nc1ccc2nc3n(c(=O)c2c1)CCCCC3	–	inconclusive: 20.6 µM [activator, partial curve, poor fit]
Cc1ccc(-n2c(CC#N)n[nH]c2=S)c(C)c1	inactive: -2.41%	–
CCn1c(CNC(=O)c2ccc(OC)cc2)nnc1SCC(=O)c1ccccc1	–	inconclusive: 29.1 µM [inhibitor, single point]
O=C(O)CCC(=O)Nc1nnc(C(F)(F)F)s1	inactive: -3.49%	–
FC(F)(F)c1cccc(NC(=S)NCc2ccc(Cl)cc2)c1	–	inconclusive: 16.4 µM [inhibitor, single point]
O=C(COc1ccccc1)Nc1nnc(-c2ccc3c(c2)CCCC3)o1	–	inconclusive: 18.4 µM [activator, partial curve]
O=C1c2ccccc2C(=O)c2c1cccc2N1CCOCC1	–	inconclusive: 18.4 µM [activator, partial curve]
O=C1N[C@H](Cc2ccccc2)COC(=O)[C@@H](Cc2ccc(F)cc2)CC/C=C/C[C@H]1CC(=O)N(CCO)Cc1ccccc1	–	active: 20.6 µM
O=C(CN(C(=O)c1csnn1)c1cccc(Cl)c1)NCCc1ccccc1	inactive: -11.7%	–
Cc1ccc(-n2ncc3c(=O)n(CC(=O)NCC4CCCO4)cnc32)cc1 (stereo not drawn)	–	inconclusive: 16.4 µM [activator, single point]
CCOc1ccc(-c2c(C(=O)N/N=C(\C)c3ccccc3OC)nnn2-c2nonc2N)cc1	–	inconclusive: 32.6 µM [activator, partial curve, poor fit]
CCCc1[nH]n(-c2ccc([N+](=O)[O-])cc2)c(=O)c1C=NCCc1c[nH]c2ccccc12	–	inconclusive: 20.6 µM [inhibitor, single point]
COc1ccccc1NS(=O)(=O)c1cc(NC(=O)CCC(=O)c2cccs2)ccc1Cl	–	inconclusive: 29.1 µM [inhibitor, single point]
Cc1ccccc1NC(=O)C1CCN(c2cc(-c3ccccc3)nc3ncnn23)CC1	–	active: 14.6 µM
COc1ccc(Cc2nc3ccccc3[nH]c2=O)cc1	inactive: 9.01%	–
C/C(=N\N=C(N)N)c1cc(Cl)ccc1Cl	–	inconclusive: 20.6 µM [inhibitor, single point]
Cc1cc(NC(=O)CCC(=O)N(c2ccccc2)C(C(=O)NC2CCCCC2)c2cccs2)no1 (stereo not drawn)	inactive: -1.93%	–
CCOC(=O)c1c(NC(=O)OC)sc(C(=O)N(C)C)c1C	inactive: -4.2%	–
O=C(N/C(=C/c1cccnc1)C(=O)N1CCCCCC1)c1cccc(Br)c1	inactive: 2.06%	–
COc1ccccc1N1CCN(S(=O)(=O)c2cc(Br)cnc2N)CC1	–	inconclusive: 20.6 µM [inhibitor, partial curve, poor fit]
CN(C1=NC(=O)C(CC(=O)Nc2ccc(Br)cc2)S1)c1ccc(O)cc1 (stereo not drawn)	–	inconclusive: 32.6 µM [inhibitor, partial curve, poor fit]
O=C(O)c1cccc(Nc2nc3ccccc3nc2NS(=O)(=O)c2cccs2)c1	–	inconclusive: 20.6 µM [activator, partial curve, poor fit]
